Data taken from paper PMC3351477.
These are yes or no findings as the source states them, for the method shown. Binding seen in cells or lysates may run through a third protein. Binding can be weak; no strength is given. Where a sequence is shown, tags or fusion partners need not be part of it. Values belong to the molecule of their own block, whether it stands above or below them.

What was measured:
[1] = target: T1, full-length V5-tagged mouse Tyro3 (mouse) (UniProt P55144); assay: co-IP; Rat2/T3V5 cells activated with 350 ng/ml Gas6 for 10 min; detergent extracts normalized and divided in two; IP of Tyro3 with anti-FN2 Tyro3 antibodies or of Axl with mouse monoclonal anti-Axl antibodies, overnight at 4°C; 6% SDS-PAGE; blotted with anti-Tyro3 serum 5424 or rabbit anti-Axl
T1 sequence (chain, N-linked glycosylated forms (doublet of about 125-120 kDa)): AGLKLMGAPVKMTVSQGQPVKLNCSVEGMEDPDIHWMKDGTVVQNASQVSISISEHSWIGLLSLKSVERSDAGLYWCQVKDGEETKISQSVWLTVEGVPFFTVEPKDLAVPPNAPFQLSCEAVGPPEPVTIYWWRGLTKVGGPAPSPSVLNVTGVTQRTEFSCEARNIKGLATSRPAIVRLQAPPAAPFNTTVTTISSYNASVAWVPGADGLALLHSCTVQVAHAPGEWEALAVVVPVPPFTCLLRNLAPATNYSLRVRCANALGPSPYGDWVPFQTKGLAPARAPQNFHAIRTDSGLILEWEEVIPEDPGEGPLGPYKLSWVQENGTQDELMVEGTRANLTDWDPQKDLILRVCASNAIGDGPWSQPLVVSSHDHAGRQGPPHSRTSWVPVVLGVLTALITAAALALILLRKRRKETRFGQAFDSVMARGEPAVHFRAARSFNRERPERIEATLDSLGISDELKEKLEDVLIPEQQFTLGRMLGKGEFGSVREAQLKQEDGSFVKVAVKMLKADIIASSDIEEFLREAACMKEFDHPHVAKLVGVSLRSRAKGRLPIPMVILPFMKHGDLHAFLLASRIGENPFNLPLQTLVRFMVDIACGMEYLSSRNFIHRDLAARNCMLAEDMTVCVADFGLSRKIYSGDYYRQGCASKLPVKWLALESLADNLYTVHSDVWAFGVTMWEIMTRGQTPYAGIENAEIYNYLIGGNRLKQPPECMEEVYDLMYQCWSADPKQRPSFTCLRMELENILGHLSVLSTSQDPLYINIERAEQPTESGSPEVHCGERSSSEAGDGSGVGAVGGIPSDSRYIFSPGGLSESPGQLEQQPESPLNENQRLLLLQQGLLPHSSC

[2] = target: Axl (endogenous in Rat2 cells) (rat (endogenous in Rat2)); assay: as above

- binding [1]: binds
Molecule: Axl (endogenous in Rat2 cells) (receptor)

- binding [2]: binds
B1: full-length V5-tagged mouse Tyro3 (receptor, UniProt P55144 31-880)
chain: T1 sequence (chain, N-linked glycosylated forms (doublet of about 125-120 kDa))
modifications: N-linked glycosylated forms (doublet of about 125-120 kDa)
